# Results from one PubChem assay

Data taken from PubChem BioAssay AID912, deposited by NCATS (2007).

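Uptake of anthrax lethal toxin into cultured cells, read by FRET (460/530 nm ratio) and reported from the 460 nm channel; the cell line is not named here.
Each compound was tested as a concentration series from about 0.0005 to 40 µM.
The number is the fitted AC50 of the 460 nm signal alone; lower values mean a more potent effect. A falling signal goes with compounds filed as inhibitors or cytotoxic, a rising one with activators or fluorescent compounds (inferred from the filed classes).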

Values are in µM.
Common to all entries: measured here: 460 nm channel.
Part of the compounds only, not a random draw; the main read-out is not listed here.
A potency from a partial, single-point or poor curve is only a rough figure.
The first word of each remark tells which way the curve ran; it can be opposite to the aim of the assay.

compound	AC50 (µM)	curve as filed
CN(C)c1ccc(N)cc1	15.85	falling, partial curve, poor fit
O=S(=O)(NCC(c1cccnc1)N1CCN(c2ccccc2)CC1)c1cc(F)ccc1F (stereo not shown)	6.31	rising, partial curve
CCCc1[nH]nc2c1C(c1ccc(OC)c(Cn3nnc4ccccc43)c1)C(C#N)=C(N)O2 (stereo not shown)	12.59	rising, partial curve
CCOC(=O)c1[nH]c(C)c(C(=O)N2CCc3ccccc32)c1C	7.943	falling, partial curve
CCC(=O)Nc1cc2c(cc1C(C)=O)OCCO2	12.59	rising, partial curve
CCCc1nc2ccccc2c(=O)n1/N=C/c1ccc(O)cc1	15.85	falling, partial curve, poor fit
O=c1c(-c2ccc(F)cc2)nc2cnc(N3CCOCC3)nc2n1Cc1cccs1	3.162	rising, partial curve
COc1ccc(OC)c(C(c2nnnn2CCc2ccccc2)N2CCN(c3ccccc3)CC2)c1 (stereo not shown)	6.31	falling, partial curve
O=C(Nc1ccccc1)C1=C(O)CC(c2ccoc2)CC1=Nc1ccccc1 (stereo not shown)	12.59	rising, single point
Cc1cc(=O)oc2cc(O)cc(O)c12	15.85	rising, partial curve
COCCCn1c(=N)c(C(=O)NCC2CCCO2)cc2c(=O)n3cccc(C)c3nc21 (stereo not shown)	3.981	rising, full curve, poor fit
COCCn1c(=O)c(-c2cn(C)c3ccccc23)nc2cnc(OCc3ccccc3)nc21	5.012	rising, partial curve
CC(C)Oc1ccc2c(=O)c3cc(C(=O)O)ccc3oc2c1	12.59	falling, single point
CCCc1cc(C(=O)N2CCN(C(c3ccccc3)c3ccccc3)CC2)no1	3.162	falling, partial curve
COc1ccc(NC(=O)N2CC[C@@]3(CCCN(C(=O)c4cccn4C)C3)C2)cc1	5.012	rising, single point
CCCCCCCCCOc1ccc2[nH]cc(CCN)c2c1	1.585	falling, full curve, poor fit
CCn1nc(NC(=O)c2ccco2)c2cc3ccc(C)cc3nc21	12.59	rising, partial curve
CSc1nc(N)nc(SCC(=O)c2ccc(C)cc2)c1C#N	0.631	falling, full curve
C[C@H]1C2=C3C(CC[C@H]4C(OCc5ccc(F)cc5C(F)(F)F)OC[C@](C)([C@@H]34)N(C(=O)OC(C)(C)C)C2)C(CO)C1CO (stereo partly shown)	10	rising, partial curve
CC1CN(c2oc(COc3ccc(Cl)cc3Cl)nc2C#N)CC(C)O1 (stereo not shown)	12.59	rising, single point
N#Cc1c(C(F)(F)F)cc(-c2ccco2)nc1SCc1ccccn1	31.62	rising, single point
COCCn1c(=O)c(-c2ccc(F)cc2)nc2cnc(N3CCOCC3)nc21	10	rising, partial curve
Cc1ccc(S(=O)(=O)N[C@H](C(=O)N2CCC(C(=O)N3CCC[C@H]3C(=O)O)CC2)C(C)C)cc1	3.162	rising, partial curve
CC(C)c1ccc(-c2noc(C3CCCN(C(=O)c4ccc(F)cc4F)C3)n2)cc1 (stereo not shown)	12.59	falling, partial curve
Cn1c(NC(=O)c2cccnc2)nc2ccccc21	12.59	rising, partial curve
O=C(CC(SCc1ccco1)c1ccc(O)cc1)c1cccs1 (stereo not shown)	5.012	rising, single point
Cc1cccc(NC(=O)c2sc3nc(-c4ccccc4)cn3c2C)n1	12.59	falling, partial curve
Cc1onc(-c2ccccc2Cl)c1C(=O)Nc1cccc2cccnc12	12.59	falling, partial curve
Cc1ccc2oc(=O)c3cnn(CC(=O)N(CCCN4CCOCC4)Cc4ccco4)c3c2c1	15.85	rising, partial curve
O=C(Cc1cccs1)Nc1nc(-c2ccccc2)cs1	31.62	falling, single point
O=C(CC12CC3CC(C1)CC(CC(=O)N1CCCC1)(C3)C2)N1CCCC1	3.162	rising, partial curve
COCCNc1cc(-c2c(C)noc2C)ncn1	3.981	rising, single point
O=C(CN1CCC(n2nnc3ccccc32)CC1)Nc1ccc2c(c1)CCC2	5.012	rising, single point
CCNc1ncc2nc(-c3ccccc3)c(=O)n(C3CC3)c2n1	10	rising, partial curve
N#Cc1cnc(Nc2nc3ccccc3o2)nc1-c1ccccc1	0.631	falling, full curve, poor fit
COc1ccccc1Nc1nc(-c2cccs2)cs1	15.85	falling, partial curve
Cc1ccc(C)c(N(C)C(=O)COc2cc(=O)n(C)c3ccccc23)c1	31.62	rising, single point

The last 3 entries again:

| compound | AC50 (µM) | curve as filed |
|---|---|---|
| `N#Cc1cnc(Nc2nc3ccccc3o2)nc1-c1ccccc1` | 0.631 | falling, full curve, poor fit |
| `COc1ccccc1Nc1nc(-c2cccs2)cs1` | 15.85 | falling, partial curve |
| `Cc1ccc(C)c(N(C)C(=O)COc2cc(=O)n(C)c3ccccc23)c1` | 31.62 | rising, single point |